Reference: the supplement of paper PMC12009310
Where a name gives a salt, the structure may show the parent alone. ± gives the standard deviation of the averaged measurements. Some of the results follow. Baselines shift from plate to plate; read single values as rough.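 The cells are a mouse kidney inner medullary collecting duct line, silenced either for the ciliary gene Rpgrip1l or with a non-targeting control siRNA.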

system: mIMCD3; assay: robust z score of cilia incidence (% cells with single cilium) vs plate controls; higher = more ciliated cells (rescue of cilia loss); conditions: 10 µM; 48 h; siRNA: siRpgrip1l

Row | SMILES | robust z score of cilia incidence
1 | Ic1cncc(OC[C@@H]2CCN2)c1 | -124 ± 110
2 | Cn1cc(C(=O)C(=O)N[C@H]2CN3CCC2CC3)c2ccccc21 | -23.8 ± 4.5
3 | Oc1ccc2c3c1O[C@H]1c4[nH]c5c(c4C[C@@]4(O)[C@@H](C2)N(CC2CC2)CC[C@]314)C[C@@]1(O)[C@H]2Cc3ccc(O)c4c3[C@@]1(CCN2CC1CC1)[C@H]5O4 [nor-Binaltorphimine dihydrochloride] | -4.87 ± 5.3
